From patent publication US20050222402A1, “Dna encoding rat bombesin receptor subtype-3 (brs-3) and uses thereof” (priority 2001, published 2005)
Residue numbers refer to the chain shown, from its start. For at least one compound, name, drawing or mass did not settle the structure.

Experiments:
[1] = biological target: T1, rat BRS-3 (Rattus norvegicus, UniProt Q8K418); test: Phosphatidylinositol hydrolysis functional assay; format: cell-based; conditions: peptide at 10 uM, transfected 293EBNA cells
T1 construct: utilized to PCR amplify full-length rat BRS-3 cDNA; expressed in transfected cells; host or cells: 293EBNA cells, pE3 expression vector
T1 sequence (Q8K418 1-399): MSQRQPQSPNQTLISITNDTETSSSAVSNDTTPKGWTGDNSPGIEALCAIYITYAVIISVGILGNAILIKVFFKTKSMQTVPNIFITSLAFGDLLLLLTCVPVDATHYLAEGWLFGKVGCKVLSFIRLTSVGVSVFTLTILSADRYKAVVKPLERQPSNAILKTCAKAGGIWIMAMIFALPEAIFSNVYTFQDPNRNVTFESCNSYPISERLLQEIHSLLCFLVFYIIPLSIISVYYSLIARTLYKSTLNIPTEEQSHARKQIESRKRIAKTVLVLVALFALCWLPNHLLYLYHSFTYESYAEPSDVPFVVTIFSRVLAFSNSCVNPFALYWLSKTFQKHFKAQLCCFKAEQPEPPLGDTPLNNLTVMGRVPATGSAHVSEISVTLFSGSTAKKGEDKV
Experimental: (§1) Wild type and mutant BRS-3 constructs were transfected by using lipofectamine reagents (Life Technologies, Rockville, Md.) into 293EBNA cells (Invitrogen, Carlsbad, Calif.) which support episomal replication of plasmid containing Epstein Bar virus OriP segment. Stable cell lines were obtained by selection with 250 ug/ml hygromycin. The cells were maintained as monolayers in Dulbecco's modified Eagle's medium (Life Technologies, Rockville, Md.) supplemented with 10% fetal bovine serum and incubated at 37° C. in a humidified 5% CO2 incubator.
The functional properties of rat BRS-3 were characterized in transfected 293EBNA cells. The transfected 293EBNA cells were plated onto poly-D-lysine coated 12-well plates and incubated in the medium containing 2 uCi/ml [^3H]myo-inositol. The cells were labeled for 48 hrs, and subsequently incubated for 30 minutes in Hank's balanced salt solution containing 10 mM HEPES, 0.1% BSA and 10 mM LiCl.
Since a natural agonist of BRS-3 has not been found, members of the bombesin-like peptide family, including GRP, NMB, bombesin and dYB, were used to stimulate the transfected cells described above, in the same buffer, for 1 hr at 37° C. The reaction was stopped by removal of medium and addition of 10 mM formic acid. […]

[2] = biological target: T1, rat BRS-3; test: Calcium mobilization assay (FLIPR), transfected 293EBNA cells; format: cell-based
Experimental: as §1
The functional activity of rat BRS-3 was also studied by measuring the agonist-induced calcium mobilization response using a Fluorescence Imaging Plate Reader (Molecular Devices, Sunnyvale, Calif.). Transfected 293EBNA cells were plated onto poly-D-lysine coated 96-well plates with black wall and clear bottom (Becton Dickinson, Franklin Lakes, N.J.). […]
The changes in intracellular calcium concentration, as indicated by Fluo-3 fluorescence, were immediately measured by FLIPR. Maximal changes in fluorescence over base line were used to determine agonist response.
The EC50 values were mean±S.E. calculated from dose-response curves of 3-5 repeated experiments using FLIPR assays.

[3] = biological target: T2, RBB3-E3 (Rattus norvegicus, UniProt Q8K418, A302V/D306A/E299Q/E303D/P308H/S300T/V307M/V310I/V311F/Y298S); test: Radioligand binding assay with 125I-dYB; design: species or system rat/human; conditions: competition with [125I]dYB
T2 construct: expressed in transfected cells; host or cells: 293EBNA cells, pE3 expression vector
T2 sequence (Q8K418 1-399 Y298S/E299Q/S300T/A302V/E303D/D306A/V307M/P308H/V310I/V311F): T1 sequence (Q8K418 1-399) with Y298S, E299Q, S300T, A302V, E303D, D306A, V307M, P308H, V310I, V311F
Experimental: After removal of cell nuclei by a low speed centrifugation (1000×g) step, the cell membrane proteins were collected by centrifugation at 35,000×g for 20 minutes. The membrane protein concentration was determined by the Bradford method using BSA as standard.
After a 2 hr incubation at room temperature, the binding reaction was terminated by filtering through a GF/c filter-mate and washing the filter with binding buffer using Packard 96-well Topcount Harvester. The amount of radioligand bound to the receptor was determined by measurement of the radioactivity on the filter through liquid scintillation counting. The non-specific binding was defined as the binding in the presence of 1 uM unlabeled dYB.

## CSCC[C@H](NC(=O)[C@H](CC(C)C)NC(=O)[C@H](Cc1cnc[nH]1)NC(=O)CNC(=O)[C@@H](NC(=O)[C@H](C)NC(=O)[C@H](Cc1c[nH]c2ccccc12)NC(=O)[C@H](CCC(N)=O)NC(=O)[C@H](CC(N)=O)NC(=O)CNC(=O)[C@H](CC(C)C)NC(=O)[C@H](CCCN=C(N)N)NC(=O)[C@H](CCC(N)=O)NC(=O)[C@@H]1CCC(=O)N1)C(C)C)C(N)=O [bombesin]
[1]
  stimulation of phosphatidylinositol (PI) hydrolysis (inositol monophosphate production): significant increase
[2]; concentrations below 1.0 uM
  intracellular calcium response: none of the four peptides could stimulate a significant calcium response
[2]; peptide at 10 uM
  intracellular calcium response: transient increase in intracellular calcium concentration
[3]
  binding affinity: uM low affinities
